# Results from patent publication US20200237736A1, “METHODS FOR PREVENTING OR TREATING CANCER RESISTANCE TO EGFR INHIBITION” (INSERM (INSTITUT NATIONAL DE LA SANTE ET DE LA RECHERCHE …, priority 2017, published 2020).
# Some of these results come from one statement about several compounds together.
# Tested on: EGFR-T790M PC9 cells containing the EGFR-C797S CRISPR-barcode
# Settings: tumors from sacrificed mice; FIG. 10
structure (smiles),measurement,value
C=CC(=O)Nc1cc(Nc2nccc(-c3cn(C)c4ccccc34)n2)c(OC)cc1N(C)CCN(C)C [osimertinib],enrichment of EGFR-C797S cells in tumors (barcode fraction by qPCR vs cells prior to injection),more than 100 fold
